Results as given in publication PMC10291184.
No constants are given. Whether binding was seen depends on the method and setting. In cells and extracts the contact can be indirect. Some binding calls cover weakened binding; strength is not graded here.

By UniProt entry, the sequences of proteins in these tests, tags left out.
UniProt P25963: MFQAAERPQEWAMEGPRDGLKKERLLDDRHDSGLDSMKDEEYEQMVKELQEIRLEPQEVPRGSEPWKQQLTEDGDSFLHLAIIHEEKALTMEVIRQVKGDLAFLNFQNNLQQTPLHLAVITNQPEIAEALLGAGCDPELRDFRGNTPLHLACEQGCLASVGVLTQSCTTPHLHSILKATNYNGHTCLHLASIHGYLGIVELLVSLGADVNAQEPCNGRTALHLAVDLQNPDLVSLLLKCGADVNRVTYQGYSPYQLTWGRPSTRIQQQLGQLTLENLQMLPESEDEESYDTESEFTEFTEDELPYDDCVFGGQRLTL

Target: IκBα (human (endogenous in MCF-7 and BT-549)) (UniProt P25963)
Assay: co-IP; endogenous proteins in MCF-7 and BT-549 cell lysates (CST lysis buffer: 20 mM Tris-HCl pH 7.5, 150 mM NaCl, 1% Triton X-100); indicated antibodies overnight at 4°C, protein A/G agarose beads, washed with NETN buffer; Western blotting

binding: binds
B1: hexokinase 2 (HK2) (enzyme, UniProt P52789 1-917)
chain: MIASHLLAYFFTELNHDQVQKVDQYLYHMRLSDETLLEISKRFRKEMEKGLGATTHPTAAVKMLPTFVRSTPDGTEHGEFLALDLGGTNFRVLWVKVTDNGLQKVEMENQIYAIPEDIMRGSGTQLFDHIAECLANFMDKLQIKDKKLPLGFTFSFPCHQTKLDESFLVSWTKGFKSSGVEGRDVVALIRKAIQRRGDFDIDIVAVVNDTVGTMMTCGYDDHNCEIGLIVGTGSNACYMEEMRHIDMVEGDEGRMCINMEWGAFGDDGSLNDIRTEFDQEIDMGSLNPGKQLFEKMISGMYMGELVRLILVKMAKEELLFGGKLSPELLNTGRFETKDISDIEGEKDGIRKAREVLMRLGLDPTQEDCVATHRICQIVSTRSASLCAATLAAVLQRIKENKGEERLRSTIGVDGSVYKKHPHFAKRLHKTVRRLVPGCDVRFLRSEDGSGKGAAMVTAVAYRLADQHRARQKTLEHLQLSHDQLLEVKRRMKVEMERGLSKETHASAPVKMLPTYVCATPDGTEKGDFLALDLGGTNFRVLLVRVRNGKWGGVEMHNKIYAIPQEVMHGTGDELFDHIVQCIADFLEYMGMKGVSLPLGFTFSFPCQQNSLDESILLKWTKGFKASGCEGEDVVTLLKEAIHRREEFDLDVVAVVNDTVGTMMTCGFEDPHCEVGLIVGTGSNACYMEEMRNVELVEGEEGRMCVNMEWGAFGDNGCLDDFRTEFDVAVDELSLNPGKQRFEKMISGMYLGEIVRNILIDFTKRGLLFRGRISERLKTRGIFETKFLSQIESDCLALLQVRAILQHLGLESTCDDSIIVKEVCTVVARRAAQLCGAGMAAVVDRIRENRGLDALKVTVGVDGTLYKLHPHFAKVMHETVKDLAPKCDVSFLQSEDGSGKGAALITAVACRIREAGQR
